Patent publication US12129248B2, “Chromobox protein inhibitors and uses thereof” (Dana-Farber Cancer Institute, Inc., priority 2016, dated 2024)
pIC50: −log10 of the molar value. Not every detail of the peptide structures is certain; ends, links or a residue may be inferred. Non-standard residues stand in square brackets, D forms with d. Residues, ends and D or L forms follow the SMILES beside them. Lys(Me3) = C[N+](C)(C)CCCC[C@H](N)C(=O)O

Protein sequences, listed by entry. Tags and fused reporters are not part of them. Residues count along the entry.
UniProt O95931, 11-69: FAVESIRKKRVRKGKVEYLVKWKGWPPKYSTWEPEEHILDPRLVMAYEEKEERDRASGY

Molecular target: Human His6-CBX7 (Homo sapiens (Human), UniProt O95931)
Experiment: CBX7 AlphaScreen assay (binding of CBX7 chromodomain to H3K27me3 peptide)
Conditions: average; His6-CBX7 / biotinylated-H3K27me3; read-out: AVG CBX7 Alpha IC50
Excerpt: A biochemical assay was developed based on nanoparticle AlphaScreen assay to monitor the binding of recombinant CBX chromodomain (CBX7) to a methylated peptide (H3K27me3).
The primary assay uses recombinant CBX chromodomain and synthetic, trimethylated H3 histone tail peptide. When CBX/histone tail-binding occurs, AlphaScreen beads are brought in close proximity, resulting in singlet molecular oxygen transfer and production of a luminescent signal. Assay positives inhibiting the binding interaction are therefore expected to prevent complex formation, diminishing signal intensity. The AlphaScreen technology features an anti-Stokes shift in detection: due to energy transfer between beads by singlet oxygen and internal chemical reactions within the acceptor bead, the emission wavelength is blue-shifted relative to the excitation wavelength, which is impossible in traditional fluorescent assays. […]
The protocol for the CBX7 AlphaScreen was as follows: a standard alpha buffer (50 mM HEPES, 150 mM NaCl, 0.1% w/v BSA, 0.01% w/v Tween20) at pH 8.0 and make up two stock solutions at 2× final concentration in the alpha buffer. […] A crosstalk calculation is also done through the Envision software to correct for luminescence for adjacent wells while reading the plate. […]

**Q.** How did the pIC50 turn out when `CC(C)C[C@H](NC(=O)[C@H](C)NC(=O)[C@@H](N)Cc1ccccc1)C(=O)N[C@@H](CCCC[N+](C)(C)C)C(=O)N[C@@H](CO)C(=O)N[C@@H](CCCCN)C(=O)O` [ACV-19] (H-FAL[Lys(Me3)]SK-OH) was run?
**A.** The pIC50 was 2.47.
